Results are given in words; binding and its absence hold for the method and conditions named. In cells and extracts the contact can be indirect. These calls come from enrichment with a bait or labelling near it, and not all partners need be listed. Blank lines part the entries; values can stand above or below the molecule they belong to.
Legend:
Assay in all cases: affinity purification with mass spectrometry + split reporter + two-hybrid; compromise score that integrates the AP-MS, split-LUC and Y2H data of the 38 x 38 screen (STATIS-like); interaction: compromise score above the threshold of about 0.6
[1] = target: malate dehydrogenase (MDH) 1 (Arabidopsis thaliana) (UniProt Q9ZP06)
[2] = target: malate dehydrogenase (MDH) 2 (Arabidopsis thaliana) (UniProt Q9LKA3)
[3] = target: T1, isocitrate dehydrogenase (IDH) subunit IDH2 (Arabidopsis thaliana) (UniProt P93032)
T1 sequence: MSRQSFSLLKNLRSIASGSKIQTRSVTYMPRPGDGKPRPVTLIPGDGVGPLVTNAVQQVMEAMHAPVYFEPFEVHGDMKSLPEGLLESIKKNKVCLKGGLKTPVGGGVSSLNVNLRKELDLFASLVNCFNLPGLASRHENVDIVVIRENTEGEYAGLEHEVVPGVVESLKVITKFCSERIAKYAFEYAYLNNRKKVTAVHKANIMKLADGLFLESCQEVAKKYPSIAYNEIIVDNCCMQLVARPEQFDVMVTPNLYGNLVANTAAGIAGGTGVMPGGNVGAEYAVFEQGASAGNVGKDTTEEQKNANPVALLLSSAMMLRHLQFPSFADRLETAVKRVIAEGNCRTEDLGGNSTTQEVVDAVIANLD

Amino acid sequences for entries named in this document (tags omitted). A change or cut given only in a name is not applied to a line headed by its entry.
UniProt Q9ZP06: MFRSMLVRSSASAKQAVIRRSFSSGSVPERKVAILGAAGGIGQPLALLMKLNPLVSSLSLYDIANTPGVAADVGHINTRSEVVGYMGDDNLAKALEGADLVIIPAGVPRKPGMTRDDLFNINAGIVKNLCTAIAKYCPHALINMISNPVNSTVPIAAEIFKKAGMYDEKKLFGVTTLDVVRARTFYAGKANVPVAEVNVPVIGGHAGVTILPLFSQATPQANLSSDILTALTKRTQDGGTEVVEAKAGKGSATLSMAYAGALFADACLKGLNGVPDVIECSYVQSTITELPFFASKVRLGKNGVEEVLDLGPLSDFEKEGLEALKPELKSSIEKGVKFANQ
UniProt Q9LKA3: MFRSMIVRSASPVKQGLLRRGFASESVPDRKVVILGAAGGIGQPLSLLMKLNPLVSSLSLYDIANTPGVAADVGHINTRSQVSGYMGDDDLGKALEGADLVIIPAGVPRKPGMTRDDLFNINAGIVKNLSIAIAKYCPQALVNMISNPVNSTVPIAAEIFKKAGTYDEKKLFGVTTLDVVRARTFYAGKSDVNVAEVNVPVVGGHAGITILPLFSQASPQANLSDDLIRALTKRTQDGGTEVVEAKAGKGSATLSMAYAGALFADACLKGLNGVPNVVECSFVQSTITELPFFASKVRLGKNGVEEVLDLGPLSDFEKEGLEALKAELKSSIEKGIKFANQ
UniProt Q8LPJ5: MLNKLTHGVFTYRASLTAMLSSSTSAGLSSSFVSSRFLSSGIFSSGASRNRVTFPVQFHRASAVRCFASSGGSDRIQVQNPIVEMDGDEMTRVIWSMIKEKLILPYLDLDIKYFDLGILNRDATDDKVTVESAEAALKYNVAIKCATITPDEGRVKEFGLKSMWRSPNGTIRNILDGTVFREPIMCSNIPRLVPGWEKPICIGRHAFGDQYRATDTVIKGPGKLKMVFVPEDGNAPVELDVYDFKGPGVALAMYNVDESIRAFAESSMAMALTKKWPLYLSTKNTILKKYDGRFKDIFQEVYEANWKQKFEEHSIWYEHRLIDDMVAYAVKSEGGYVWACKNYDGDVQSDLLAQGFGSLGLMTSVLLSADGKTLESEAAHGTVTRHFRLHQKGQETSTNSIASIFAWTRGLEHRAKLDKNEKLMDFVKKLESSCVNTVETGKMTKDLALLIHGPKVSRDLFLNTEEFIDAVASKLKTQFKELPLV

[4] = target: T2, isocitrate dehydrogenase (IDH) subunit IDH6 (Arabidopsis thaliana) (UniProt Q8LG77)
T2 sequence: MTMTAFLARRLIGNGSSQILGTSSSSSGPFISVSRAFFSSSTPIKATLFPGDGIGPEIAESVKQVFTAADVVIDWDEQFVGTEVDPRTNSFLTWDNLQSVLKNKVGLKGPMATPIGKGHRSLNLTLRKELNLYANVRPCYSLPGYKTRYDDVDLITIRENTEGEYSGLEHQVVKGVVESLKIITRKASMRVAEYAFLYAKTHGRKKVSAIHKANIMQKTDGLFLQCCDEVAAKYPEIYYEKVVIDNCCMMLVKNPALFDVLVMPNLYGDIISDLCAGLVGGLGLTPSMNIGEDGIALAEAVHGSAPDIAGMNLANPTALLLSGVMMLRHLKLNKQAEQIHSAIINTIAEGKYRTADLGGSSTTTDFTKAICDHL

[5] = target: T3, citrate synthase (CSY) 4 (Arabidopsis thaliana) (UniProt P20115)
T3 sequence: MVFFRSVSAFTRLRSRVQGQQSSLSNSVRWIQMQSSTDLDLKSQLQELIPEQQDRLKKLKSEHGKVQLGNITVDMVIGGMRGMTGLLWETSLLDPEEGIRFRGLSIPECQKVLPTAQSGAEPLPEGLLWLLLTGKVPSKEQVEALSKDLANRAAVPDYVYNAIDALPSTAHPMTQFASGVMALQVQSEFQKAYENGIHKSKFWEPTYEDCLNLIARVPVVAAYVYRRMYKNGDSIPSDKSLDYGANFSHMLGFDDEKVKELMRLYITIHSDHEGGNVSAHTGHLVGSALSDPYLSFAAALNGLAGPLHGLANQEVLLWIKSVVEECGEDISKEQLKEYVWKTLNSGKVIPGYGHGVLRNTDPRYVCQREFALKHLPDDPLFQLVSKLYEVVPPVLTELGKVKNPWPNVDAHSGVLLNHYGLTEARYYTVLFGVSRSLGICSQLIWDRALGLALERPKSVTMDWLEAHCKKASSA

[6] = target: oxoglutarate dehydrogenase complex (ODC) subunit ODC2-2 (Arabidopsis thaliana)
[7] = target: oxoglutarate dehydrogenase complex (ODC) subunit ODC2-1 (Arabidopsis thaliana)
[8] = target: T4, isocitrate dehydrogenase (IDH) subunit IDH1 (Arabidopsis thaliana) (UniProt Q8LFC0)
T4 sequence: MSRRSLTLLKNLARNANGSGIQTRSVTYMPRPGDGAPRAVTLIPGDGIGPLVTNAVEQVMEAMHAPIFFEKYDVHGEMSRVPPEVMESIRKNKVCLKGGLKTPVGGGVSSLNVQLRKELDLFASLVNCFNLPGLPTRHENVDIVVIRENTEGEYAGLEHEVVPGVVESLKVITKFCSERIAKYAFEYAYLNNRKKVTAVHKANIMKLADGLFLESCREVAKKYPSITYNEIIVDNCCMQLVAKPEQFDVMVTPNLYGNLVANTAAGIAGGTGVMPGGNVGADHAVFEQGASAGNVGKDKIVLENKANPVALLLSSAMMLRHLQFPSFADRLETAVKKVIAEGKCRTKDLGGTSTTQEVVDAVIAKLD

Molecule: malate dehydrogenase (MDH) 1 (from UniProt Q9ZP06) (enzyme)
binding [5]: binds

B1: isocitrate dehydrogenase (IDH) subunit IDH5 (enzyme, UniProt Q945K7 1-374)
chain: MTMAANLARRLIGNRSTQILGAVNSSSGAASSVARAFCSSTTPITATLFPGDGIGPEIAESVKKVFTTAGVPIEWEEHYVGTEIDPRTQSFLTWESLESVRRNKVGLKGPMATPIGKGHRSLNLTLRKELNLYANVRPCYSLPGYKTRYDDVDLITIRENTEGEYSGLEHQVVRGVVESLKIITRQASLRVAEYAFLYAKTHGRERVSAIHKANIMQKTDGLFLKCCREVAEKYPEITYEEVVIDNCCMMLVKNPALFDVLVMPNLYGDIISDLCAGLVGGLGLTPSCNIGEDGVALAEAVHGSAPDIAGKNLANPTALLLSGVMMLRHLKFNEQAEQIHSAIINTIAEGKYRTADLGGSSTTTEFTKAICDHL
binding [6]: binds

B2: isocitrate dehydrogenase (IDH) subunit IDH6 (enzyme, UniProt Q8LG77 1-374)
chain: T2 sequence
binding [7]: binds
binding [6]: binds

The next lines start with the values.

binding [1]: binds
binding [2]: binds
Molecule: NADP+-dependent isocitrate dehydrogenase (ICDH) (from UniProt Q8LPJ5) (enzyme)

binding [3]: binds
binding [4]: binds
binding [5]: binds
Molecule: malate dehydrogenase (MDH) 2 (from UniProt Q9LKA3) (enzyme)

binding [3]: binds
binding [4]: binds
binding [8]: binds
B3: aconitase 3 (ACO3) (enzyme, UniProt Q9SIB9 1-990)
chain: MYLTASSSASSSIIRAASSRSSSLFSFRSVLSPSVSSTSPSSLLARRSFGTISPAFRRWSHSFHSKPSPFRFTSQIRAVSPVLDRLQRTFSSMASEHPFKGIFTTLPKPGGGEFGKFYSLPALNDPRVDKLPYSIRILLESAIRNCDNFQVTKEDVEKIIDWEKTSPKQVEIPFKPARVLLQDFTGVPAVVDLACMRDAMNKLGSDSNKINPLVPVDLVIDHSVQVDVARSENAVQANMELEFQRNKERFAFLKWGSTAFQNMLVVPPGSGIVHQVNLEYLGRVVFNTKGLLYPDSVVGTDSHTTMIDGLGVAGWGVGGIEAEATMLGQPMSMVLPGVVGFKLAGKMRNGVTATDLVLTVTQMLRKHGVVGKFVEFYGNGMSGLSLADRATIANMSPEYGATMGFFPVDHVTLQYLKLTGRSDETVAMIEAYLRANNMFVDYNEPQQDRVYSSYLELNLDDVEPCISGPKRPHDRVTLKEMKADWHSCLDSKVGFKGFAIPKEAQEKVVNFSFDGQPAELKHGSVVIAAITSCTNTSNPSVMLGAGLVAKKACDLGLQVKPWIKTSLAPGSGVVTKYLLKSGLQEYLNEQGFNIVGYGCTTCIGNSGEINESVGAAITENDIVAAAVLSGNRNFEGRVHPLTRANYLASPPLVVAYALAGTVNIDFETEPIGKGKNGKDVFLRDIWPTTEEIAEVVQSSVLPDMFRATYESITKGNPMWNKLSVPENTLYSWDPNSTYIHEPPYFKDMTMDPPGPHNVKDAYCLLNFGDSITTDHISPAGNIQKDSPAAKFLMERGVDRKDFNSYGSRRGNDEIMARGTFANIRIVNKLMNGEVGPKTVHIPSGEKLSVFDAAMRYKSSGEDTIILAGAEYGSGSSRDWAAKGPMLQGVKAVIAKSFERIHRSNLVGMGIIPLCFKSGEDADTLGLTGHERYTIHLPTDISEIRPGQDVTVTTDNGKSFTCTVRFDTEVELAYFNHGGILPYVIRNLSKQ

Source: paper PMC5440813
